# Library compounds against nucleic acid targets

Targets, with sequences 5′ to 3′:
TPP: TPP riboswitch RNA three-way junction, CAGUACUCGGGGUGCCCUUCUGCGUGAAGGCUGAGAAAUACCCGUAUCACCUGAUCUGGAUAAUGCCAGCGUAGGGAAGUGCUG. Hit rate about 0.7% of about 24,000 compounds.
SAM-II: SAM-II riboswitch RNA pseudoknot, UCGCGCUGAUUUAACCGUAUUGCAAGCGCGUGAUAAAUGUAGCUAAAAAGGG. Hit rate about 1% of about 21,000 compounds.
PreQ1: PreQ1 riboswitch RNA pseudoknot, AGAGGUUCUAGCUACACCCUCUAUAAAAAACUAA. From B. subtilis. Hit rate about 0.7% of about 24,000 compounds.

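Each compound is printed as two spots on a slide made to bind it covalently, so it has no test concentration; the read-out is fluorescence of the bound, labelled oligonucleotide. The data file lists only calls. An earlier report of the laboratory on the PreQ1, TPP and SAM-II riboswitches (doi:10.1038/s41467-019-09493-3) used 1 µM RNA for 2 h and required a mean Z-score above 3 (spot signal-to-noise against the whole library), a score well above that on a control array, and duplicate spots agreeing (coefficient of variation under 100); it then also set aside compounds that hit other targets, which this list keeps. The cut-offs behind this list may differ. A missing hit is not proof of no binding, and a hit is not a measured affinity.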 “1” means called a hit, “0” means screened and not called a hit. Compounds were drawn at random from those tested, without regard to their results. A dash means that no call is listed here.

| SMILES | TPP | SAM-II | PreQ1 |
|---|---|---|---|
| `C=CCNc1ncnc2c1sc1nc(-c3ccco3)c3c(c12)CC(C)(C)OC3` | 0 | 0 | 0 |
| `Cc1ccccc1Nc1cc(C(C)C)nc2nc(-c3cccnc3)nn12` | 0 | - | 0 |
| `CCNC(=O)c1ccccc1-c1ccc(F)c(CO)c1` | 0 | 0 | 0 |
| `CCOC(=O)c1sc(N2CCOCC2)nc1N` | 0 | 0 | 0 |
| `Cc1ccc2nc(CN(C)C(=O)c3cn(CCN4CCNCC4)nn3)[nH]c2c1` | 0 | 0 | 0 |
| `O=C(NCc1cccc(-c2ccccc2)c1)C1CNCCO1` (stereo not shown) | 0 | 0 | 0 |
| `CCCc1n[nH]c2c1C(c1ccc(CC)cc1)C(C#N)=C(N)O2` (stereo not shown) | 0 | 0 | 0 |
| `C1COC(c2nc(CNC3CCC4(CCNCC4)CC3)no2)C1` (stereo not shown) | 0 | 0 | 0 |
| `COc1ccc(C=Cc2cc(OC)c(OC)c(OC)c2)cc1O` | 0 | 0 | 0 |
| `O=C1Nc2ccc(Cl)cc2C(C#CC2CC2)(C(F)(F)F)O1` (stereo not shown) | 0 | 0 | 0 |
| `O=C(c1ccc(=O)[nH]n1)N(CCO)CCSc1ccc(Cl)cc1` | 0 | 0 | 0 |
| `O=C1NCCCCC1NC(=O)C1(Oc2ccc(Cl)cc2)CCNCC1` (stereo not shown) | 0 | 0 | 0 |
| `C1CC2NCCC3NCCC(N1)N32` (stereo not shown) | 0 | 0 | 0 |
| `Cc1ccc(-n2nc(CO)c(C(=O)NCc3cccs3)n2)cc1` | 0 | - | 0 |
| `CCS(=O)(=O)c1ccc2oc(NC)nc2c1` | 0 | 0 | 0 |
| `Cc1c(S(=O)(=O)c2ccc(F)cc2)c(N)n(CC2CC2)c1C` | 0 | 0 | 0 |
| `COc1ccc2c(CNCc3cccc(Cl)c3)c(C(=O)O)[nH]c2c1` | 0 | - | 0 |
| `c1cnc(Oc2cccc(CNCC3CCCO3)c2)nc1` (stereo not shown) | 0 | 0 | 0 |
| `O=C(Cn1ccccc1=O)N1C[C@@H](CN2CCOCC2)[C@@H](CO)C1` | 0 | 0 | 0 |
| `O=C(N[C@@H]1CCN(c2ncnc3c2CCC3)C[C@H]1O)c1ccccn1` | 0 | 0 | 0 |
| `CS(=O)(=O)c1ccc([C@@H](O)[C@@H](CO)NC(=O)C(Cl)Cl)cc1` | 0 | 0 | 0 |
| `CCOc1ccc(CN2CC[C@@H]3[C@@H](CCC(=O)N3CCCO)C2)cn1` | 0 | 0 | 0 |
| `CCCc1nc2sc3c(NCCO)ncnc3c2c2c1COC(C)(C)C2` | 0 | 0 | 0 |
| `Clc1ccc(-c2noc3ncnc(NC4CCCCCC4)c23)cc1` | 0 | 0 | 0 |
| `COc1cc(C2C(C#N)=C(N)OC3=C2C(=O)CC(C)(C)C3)ccc1O` (stereo not shown) | 0 | 0 | 0 |
| `CCOC(=O)c1cnc2ccc(Cl)cc2c1Nc1ccc(N2CCOCC2)cc1` | 0 | 0 | 0 |
| `COCc1n[nH]c2c1C(c1cc(OC)ccc1OC)C(C#N)=C(N)O2` (stereo not shown) | 0 | 0 | 0 |
| `OCCCn1cnc(-c2ccccc2)c1CCn1cccn1` | 0 | 0 | 0 |
| `CC(O)CNC(=O)c1cc2c(=O)n(C)c(=O)n(C)c2s1` (stereo not shown) | 0 | 0 | 0 |
| `Cc1cc2c(c(=O)o1)C(c1ccc(OCc3ccccc3)cc1)C(C#N)=C(N)O2` (stereo not shown) | 0 | 0 | 0 |
| `OCCCNc1ncnc2c1oc1ccccc12` | 0 | 0 | 0 |
| `CCCC(O)c1nc2ccccc2n1CCCCOc1ccccc1` (stereo not shown) | 0 | - | 0 |
| `CCC1CCc2nc3sc(C(=O)NCc4ccc(OC)cc4)c(N)c3cc2C1` (stereo not shown) | 0 | 0 | 0 |
| `CC(Cn1ccnc1)NCc1ccc2nonc2c1` (stereo not shown) | 0 | 0 | 0 |
| `CCc1oc(C(=O)N2CCNCC2C(=O)NC2CC2)cc1CN(CC)CC` (stereo not shown) | 0 | 0 | 0 |
| `COc1cccc(NC(c2cccc(Cl)c2)c2nnc(-c3ccccc3)o2)c1` (stereo not shown) | 0 | 0 | 0 |
| `O=C(O)/C=C\C(=O)Nc1ccc(-c2ccccc2)cc1` | 0 | 0 | 0 |
| `CN1[C@H]2CC[C@H]1CC(OC(=O)c1c[nH]c3ccccc13)C2` (stereo partly shown) | 0 | 0 | 0 |
| `COc1cc(NC(c2ccc(Cl)cc2)c2nnc(-c3cccc(F)c3)o2)cc(OC)c1` (stereo not shown) | 0 | 0 | 0 |
| `Cc1n[nH]c(C)c1C(N)C(=O)N(CC=Cc1ccccc1)CC(C)C` (stereo not shown) | 0 | 0 | 0 |
| `O=C(c1ccc(N2CCCCC2)cc1)N1CCC2(CC1)OCCCC2O` (stereo not shown) | 0 | 0 | 0 |
| `CCN(CC)CCNc1ncnc2c1sc1nc3c(cc12)COC(C)(C)C3` | 0 | 0 | 0 |
| `N#CCc1cnc2ccccc2n1` | 0 | 0 | 0 |
| `O=C(CC1CNCCO1)N1CCC2(CC1)CC(=O)N(CCCc1ccccc1)C2` (stereo not shown) | 0 | 0 | 0 |
| `Cc1nc(C)n(CCCNc2nc(CO)nc3ccccc23)n1` | 0 | 0 | 0 |
| `O=C(O)C(c1ccccc1)C1(O)CCCCC1` (stereo not shown) | 0 | 0 | 0 |
| `O=C(Nc1c(C(c2ccc(Cl)cc2)N2CCN(CCO)CC2)oc2ccccc12)c1cccs1` (stereo not shown) | 0 | - | 0 |
| `c1ccc(-c2ncc3c(n2)CN(Cc2cc4n(n2)CCNC4)C3)cc1` | 0 | 0 | 0 |
| `Cc1cc(Br)ccc1NCc1ccc2c(c1)OCO2` | 0 | 0 | 0 |
| `Cc1cccc(NC2c3ccccc3C(=O)N2Cc2ccccc2)n1` (stereo not shown) | 0 | 0 | 0 |
| `Cc1cnn(C)c1C(=O)Nc1cc(Nc2ccc3c(C=Cc4ccccn4)n[nH]c3c2)ccc1F` | 0 | 0 | 0 |
| `Cn1c(N)c(/N=N/c2ccc(S(N)(=O)=O)cc2)c(=O)n(C)c1=O` | 0 | 0 | 0 |
| `CC(C)(C)C1CCc2c(sc(NC(=O)c3cccs3)c2C(=O)NCCO)C1` (stereo not shown) | 0 | 0 | 0 |
| `CC[C@@H]([C@H](C)O)n1ncn(-c2ccc(N3CCN(c4ccc(OCC5CO[C@@](Cn6cncn6)(c6ccc(F)cc6F)C5)cc4)CC3)cc2)c1=O` (stereo partly shown) | 0 | 0 | 0 |
| `COc1ccc(OC)c(COCC(O)CN2CCCCCC2)c1.Cl` (stereo not shown) | 0 | 0 | 0 |
| `CCN1C[C@@]2(C(=O)O)CN(C(=O)c3cccc4c3NCCC4)C[C@H]2C1=O` | 0 | 0 | 0 |
| `CCOc1ccc(S(=O)(=O)N2CCN(c3cc(C)nc(Nc4ccc(C)cc4)n3)CC2)cc1` | 0 | - | 0 |
| `Cc1cccc(C)c1Nc1c(-c2ccsc2)nc2sccn12` | 0 | 0 | 0 |
| `O=C(CC1CCc2ccccc21)NCC1CCNCC1` (stereo not shown) | 0 | 0 | 0 |
| `CN1CCC2(CCN(C(=O)C(C)(C)Nc3ccccc3)CC2)C1` | 0 | 0 | 0 |
| `N#Cc1cnc(N2CCN(Cc3cccn3-c3ccccn3)CC2)nc1N` | 0 | 0 | 0 |
| `Nc1cccc(-c2cc3c(Oc4cccc(O)c4)ncnc3[nH]2)c1` | 0 | 0 | 0 |
| `CCC(O)Cc1ccc2sc3c(c2c1)CCNC3=O` (stereo not shown) | 0 | 0 | 0 |
| `COc1cc(OC)c(Nc2nc3ccccc3c3nncn23)cc1Cl` | 0 | 0 | 0 |
| `Cc1ccc2oc(-c3ccc(Cl)c(N)c3)nc2c1` | 0 | 0 | 0 |

Some entries from above, unchanged:

| SMILES | TPP | SAM-II | PreQ1 |
|---|---|---|---|
| `O=C(Nc1c(C(c2ccc(Cl)cc2)N2CCN(CCO)CC2)oc2ccccc12)c1cccs1` (stereo not shown) | 0 | - | 0 |
| `O=C(c1ccc(N2CCCCC2)cc1)N1CCC2(CC1)OCCCC2O` (stereo not shown) | 0 | 0 | 0 |
| `CCOc1ccc(S(=O)(=O)N2CCN(c3cc(C)nc(Nc4ccc(C)cc4)n3)CC2)cc1` | 0 | - | 0 |
| `CC(O)CNC(=O)c1cc2c(=O)n(C)c(=O)n(C)c2s1` (stereo not shown) | 0 | 0 | 0 |
| `CCS(=O)(=O)c1ccc2oc(NC)nc2c1` | 0 | 0 | 0 |
| `O=C(O)C(c1ccccc1)C1(O)CCCCC1` (stereo not shown) | 0 | 0 | 0 |

From ROBIN, a set of small-molecule microarray screens (doi:10.1002/anie.202211358).